Reference: patent publication US20250381180A1, “METHODS OF TREATING OR PREVENTING OVERACTIVE BLADDER SYNDROME” (Purdue Pharma L.P., priority 2022, published 2025)
Some entries share one result that the patent states for a list of compounds.

Experiment: Urine concentrations in humans after a single oral dose
Format: in vivo, human
Settings: following oral administration

For `O=C(O)c1nc2ccccc2n([C@H]2C[C@H]3CCC[C@@H](C2)N3C2CC3CCCC(C3)C2)c1=O` (single isomer, unassigned) [compound of formula (I′)], which “time the concentration in the urine remains high” value is on record?
The value was “at least 24 hours”.

With `O=C(O)c1nc2ccccc2n(C2CC3CCCC(C2)N3C2CC3CCCC(C3)C2)c1=O` (centres unmarked) [compound of formula (I)] as the compound, how does the “time the concentration in the urine remains high” value read?
The value was “at least 24 hours”.
